The nature of this series: Surface enhanced Raman spectroscopy (SERS) of gemcitabine with Na2S3 or Na2S4. The conditions noted are these: for SERS peak (456 cm^−1) yielded by Na2S3 or Na2S4: 100 μM Na2S3 or Na2S4 added to gemcitabine.

Regarding `[Na+].[Na+].[S-]S[S-]` [Na2S3], the “SERS peak (456 cm^−1) yielded by Na2S3 or Na2S4” value is reported as “disappearance of the peak”.

For the compound `[Na+].[Na+].[S-]SS[S-]` [Na2S4], the “SERS peak (456 cm^−1) yielded by Na2S3 or Na2S4” value is recorded as “disappearance of the peak”.

Turning to `Nc1ccn([C@@H]2O[C@H](CO)[C@@H](O)C2(F)F)c(=O)n1` [gemcitabine], for the setting “addition of 100 μM Na2S3 or Na2S4 to gemcitabine”, the “major SERS peak of gemcitabine (435 cm^−1)” value was “disappearance of the one peak”.

(Values after patent US20220365087A1, “METHOD FOR ACQUIRING DATA FOR DISTINGUISHING PRESENCE OF CANCER CELLS AND/OR DISTINGUISHING ANTICANCER DRUG RESISTANCE, METHOD FOR ACQUIRING PREDICTION DATA, USE OF DISTINCTION MARKER IN SAME, AND DISTINGUISHING KIT” (KEIO UNIVERSITY, priority 2019, published 2022).)
